Data from PMC11501035.
Results are given in words; binding and its absence hold for the method and conditions named. Some entries that bind do so weakly or less than the wild type.

Sequences of proteins named here, by UniProt entry; tags and fusion partners are left off. A change or cut given only in a name is not applied to a line headed by its entry. A line that says so, or that is headed by a name, gives the form on record, which may keep a tag or linker.
sarcoplasmic/endoplasmic reticulum (SER) Ca2+ ATPase 2a (O55143-2, form named): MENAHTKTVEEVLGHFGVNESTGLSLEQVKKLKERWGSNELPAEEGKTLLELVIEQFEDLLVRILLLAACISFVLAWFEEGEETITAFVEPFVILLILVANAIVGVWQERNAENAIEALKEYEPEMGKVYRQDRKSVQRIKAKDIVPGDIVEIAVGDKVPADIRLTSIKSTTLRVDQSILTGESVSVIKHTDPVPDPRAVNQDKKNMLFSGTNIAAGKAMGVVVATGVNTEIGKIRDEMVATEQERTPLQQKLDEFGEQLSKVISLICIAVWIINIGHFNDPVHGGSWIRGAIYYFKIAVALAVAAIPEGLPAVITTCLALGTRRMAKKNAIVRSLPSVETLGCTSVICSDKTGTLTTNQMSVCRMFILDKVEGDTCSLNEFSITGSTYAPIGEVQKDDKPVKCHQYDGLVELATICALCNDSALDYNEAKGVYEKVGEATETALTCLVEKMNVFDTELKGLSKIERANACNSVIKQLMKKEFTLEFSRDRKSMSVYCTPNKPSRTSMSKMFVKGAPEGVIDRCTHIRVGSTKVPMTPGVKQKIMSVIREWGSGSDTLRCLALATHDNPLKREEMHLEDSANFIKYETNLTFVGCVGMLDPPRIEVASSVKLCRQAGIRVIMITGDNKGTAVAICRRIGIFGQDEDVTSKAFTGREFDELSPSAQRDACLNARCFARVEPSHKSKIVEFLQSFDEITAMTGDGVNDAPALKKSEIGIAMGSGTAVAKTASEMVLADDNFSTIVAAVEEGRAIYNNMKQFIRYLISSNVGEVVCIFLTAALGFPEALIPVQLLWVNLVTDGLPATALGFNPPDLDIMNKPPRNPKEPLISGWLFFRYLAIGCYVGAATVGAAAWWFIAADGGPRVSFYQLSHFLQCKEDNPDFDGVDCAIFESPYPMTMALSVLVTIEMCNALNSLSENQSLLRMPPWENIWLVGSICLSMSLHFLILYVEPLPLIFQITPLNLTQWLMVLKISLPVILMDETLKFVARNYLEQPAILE

Biological target: T1, Phospholamban (mouse (endogenous in left-ventricular tissue)) (UniProt P61014)
T1 sequence: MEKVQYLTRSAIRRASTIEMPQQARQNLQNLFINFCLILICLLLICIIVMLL
Assay: complexome profiling (SEC fractionation with DIA-MS of each fraction); Cohort #1: membrane fractions of left-ventricular tissue of one 28wk-old WT and one R14Δ/+ mouse, solubilised in C12E8 (0.5 mg/mg protein); Bio-SEC-5 1000 Å column, on ice, 5 mM Tris-HCl, 1 mM EDTA, 150 mM KCl, 0.005 mg/ml C12E8, pH 7; 89 fractions; co-elution of proteins in high-MW fractions

binding: binds
Substance: sarcoplasmic/endoplasmic reticulum (SER) Ca2+ ATPase 2a (from UniProt O55143-2 1-998)
